Measurements taken from patent publication US20230190745A1, “USE OF METABOLIC REGULATORS FOR THE TREATMENT OF COVID-19” (YISSUM RESEARCH DEVELOPMENT COMPANY OF THE HEBREW …, priority 2020, published 2023).
Entries after “also recorded” stand apart in the source; their conditions may differ. At least one compound was matched to its structure with a doubt left.

System: SARS-CoV-2 infected lung cells
Format: cell-based
Conditions: 5 days exposure, vs DMSO-treated and mock-infected controls

SMILES: CC(C)OC(=O)C(C)(C)Oc1ccc(C(=O)c2ccc(Cl)cc2)cc1 [fenofibrate]
- phospholipid accumulation / lipid content: blocked phospholipid accumulation; also recorded: lower phospholipid content
